## Results of single-concentration screens

By UniProt entry, the sequences of proteins in these tests, tags left out. Residues count along the entry.
UniProt A4I591, 1-473: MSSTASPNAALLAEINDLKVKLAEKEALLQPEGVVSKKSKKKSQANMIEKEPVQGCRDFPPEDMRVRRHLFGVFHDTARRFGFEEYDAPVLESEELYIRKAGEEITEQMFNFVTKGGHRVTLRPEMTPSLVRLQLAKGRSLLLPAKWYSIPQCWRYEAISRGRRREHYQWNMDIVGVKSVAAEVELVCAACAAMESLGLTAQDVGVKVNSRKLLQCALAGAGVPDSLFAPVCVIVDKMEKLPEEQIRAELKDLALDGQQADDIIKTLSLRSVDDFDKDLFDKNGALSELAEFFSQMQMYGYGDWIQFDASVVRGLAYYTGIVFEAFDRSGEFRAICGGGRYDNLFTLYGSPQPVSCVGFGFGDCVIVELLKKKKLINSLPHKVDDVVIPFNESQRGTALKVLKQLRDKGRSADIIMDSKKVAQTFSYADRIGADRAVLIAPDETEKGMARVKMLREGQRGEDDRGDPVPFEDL
UniProt P9WPC5, whole entry: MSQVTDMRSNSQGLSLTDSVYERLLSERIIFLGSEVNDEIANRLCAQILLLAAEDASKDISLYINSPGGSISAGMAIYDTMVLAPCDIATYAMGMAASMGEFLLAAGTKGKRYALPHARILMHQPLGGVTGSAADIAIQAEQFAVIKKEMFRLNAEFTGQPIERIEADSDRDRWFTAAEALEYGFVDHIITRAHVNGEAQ
UniProt P9WPC3, whole entry partner: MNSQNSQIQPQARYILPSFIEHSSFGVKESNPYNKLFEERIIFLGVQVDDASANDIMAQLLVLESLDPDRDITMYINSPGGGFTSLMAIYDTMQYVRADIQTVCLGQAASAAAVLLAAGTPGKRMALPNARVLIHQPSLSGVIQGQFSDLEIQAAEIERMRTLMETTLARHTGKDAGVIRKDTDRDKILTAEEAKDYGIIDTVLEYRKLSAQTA

LiHisRS: 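Histidine-tRNA ligase, Leishmania infantum (UniProt A4I591). Enzyme assay of histidyl-tRNA synthetase; the read-out is not stated. Tested at 30 µM. Direction is inferred from retests: higher values go with stronger inhibition. The assay is labelled LdHisRS but filed under L. infantum. Of about 69,000 compounds tested this way, about 410 (0.6%) reached 50% or more in at least one test.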
Toxoplasma: 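Assay of Toxoplasma gondii numbers, read through their beta-galactosidase reporter with a colour substrate. Concentration: 10 µM. Higher reads as fewer parasites (inferred from which compounds were picked for retests). Size under these conditions: about 67,000 compounds, about 260 of them at 50% or above in at least one test.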
ClpP1P2: 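ClpP1P2, Mycobacterium tuberculosis (UniProt P9WPC5 and UniProt P9WPC3). Protease assay of ClpP1P2, read by the AMC dye that it sets free. Tested at 50 µM. Direction is inferred from only a few compounds that gave an IC50; most scored high, so higher reads as stronger inhibition. Most other retested compounds had strongly negative values. Of about 69,000 compounds tested this way, about 10 (0.015%) reached 50% or more in at least one test.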
T. brucei: 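Whole-parasite assay of Trypanosoma brucei over 72 hours; the read-out is not stated. Tested at 30 µM. Direction is inferred from retests: higher values go with stronger inhibition. Values scatter widely below zero; nearly all retest evidence comes from the higher of the two concentrations used. About 64,000 compounds were tested under these conditions; 1.5% (about 940) showed 50% or more at least once.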
Leishmania in macrophages: 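Cell assay of Leishmania donovani living inside macrophages; the read-out is not stated. Compounds at 30 µM. The record gives no direction; compounds that gave an IC50 in retests scored well above the rest, so higher reads as stronger inhibition. Size under these conditions: about 69,000 compounds, about 1,000 of them at 50% or above in at least one test.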

Results are given as percent effect.
The controls that fix the scale are not given in the record; negative values are as filed.
Compounds were drawn at random from those tested, without regard to their results.
Two or more numbers in one place are separate tests of the same structure; such repeats can differ widely.

{"compound": "Cc1ccc(CN(C)C(C(=O)O)c2ccc3c(c2)OCO3)o1", "stereo": "stereo not given", "LiHisRS": 5.594, "Toxoplasma": -21.87, "ClpP1P2": -0.9824, "T. brucei": 6.817, "Leishmania in macrophages": 7.338}
{"compound": "CCN1CC2(CC1=O)CN(C(=O)NC(C)C)CCN(S(C)(=O)=O)C2", "stereo": "stereo not given", "LiHisRS": 5.769, "Toxoplasma": -1.357, "ClpP1P2": 5.546, "T. brucei": -17.98, "Leishmania in macrophages": 27.94}
{"compound": "Cc1n[nH]c(C)c1S(=O)(=O)N(C)Cc1nn(C)c(Cl)c1Cl", "LiHisRS": 2.941, "Toxoplasma": -23.44, "ClpP1P2": -2.096, "T. brucei": -38.69, "Leishmania in macrophages": -2.212}
{"compound": "CCC(=O)N1CCC(NC(=O)c2cccc(-n3ccnc3)c2)C1", "stereo": "stereo not given", "LiHisRS": 4.505, "Toxoplasma": -0.2273, "ClpP1P2": 0.3409, "T. brucei": 1.847, "Leishmania in macrophages": 12.25}
{"compound": "CC(=O)NCC(=O)N1CCn2cc(CN(C)Cc3ccco3)nc2C1.O=C(O)C(F)(F)F", "Toxoplasma": 6.095, "T. brucei": -57.88, "Leishmania in macrophages": "5.223 and 1.958"}
{"compound": "Cc1ccc(CNC(=O)c2nc3c(o2)CN(c2ncccn2)C3)o1", "LiHisRS": 17.24, "Toxoplasma": -2.211, "ClpP1P2": -1.194, "T. brucei": -47.62, "Leishmania in macrophages": 19.12}
{"compound": "O=C(N1CCOCC1)N1CCc2ncnc(Oc3cccnc3)c2CC1", "LiHisRS": 19.44, "ClpP1P2": 1.286}
{"compound": "CC(C(=O)N1CCCCC1)n1nc(-c2cccs2)cc(N)c1=O", "stereo": "stereo not given", "LiHisRS": 0, "Toxoplasma": 24.31, "ClpP1P2": -3.152, "T. brucei": -2.702, "Leishmania in macrophages": 8.053}
{"compound": "CN(C)c1nc(CNC(=O)N[C@H](CO)c2ccccc2)cs1", "LiHisRS": 9.89, "Toxoplasma": -36.62, "ClpP1P2": 4.496, "T. brucei": -12.62, "Leishmania in macrophages": -13.95}
{"compound": "CCOCCN1CCN(Cc2nnc(C3CC3)o2)CC1C", "stereo": "stereo not given", "LiHisRS": 15.07, "Toxoplasma": -2.149, "ClpP1P2": -3.073, "T. brucei": -32.11, "Leishmania in macrophages": 3.45}
{"compound": "COCCOc1ccc(NC(=O)N2CCCC2c2ccsc2)cn1", "stereo": "stereo not given", "LiHisRS": 16.53, "Toxoplasma": 5.096, "ClpP1P2": -7.356, "T. brucei": 20.74, "Leishmania in macrophages": 28.09}
{"compound": "O=c1[nH]nc(-c2cccs2)c2sc(N3CCOCC3)nc12", "LiHisRS": 11.86, "Toxoplasma": 9.638, "ClpP1P2": -11.57, "T. brucei": -11, "Leishmania in macrophages": 22.31}
{"compound": "CC(=O)N1N=C(c2ccccc2)OC1C(=O)NCCc1cccc(F)c1", "stereo": "stereo not given", "LiHisRS": 9.901, "Toxoplasma": 19.87, "ClpP1P2": -0.4534, "T. brucei": -23.8, "Leishmania in macrophages": 6.344}
{"compound": "OC[C@H]1CN2CCN(c3ccccn3)C[C@@H]2[C@@H]1c1ccccc1", "LiHisRS": 2.062, "ClpP1P2": -7.405}
{"compound": "COCC(=O)N1CCC2(CC1)COC(COCc1ccccn1)C2", "stereo": "stereo not given", "LiHisRS": 14.47, "ClpP1P2": -7.07}
{"compound": "O=C(O)C(F)(F)F.[H][C@@]12COC[C@]1(c1nnc(C)o1)CN(Cc1cccs1)C2", "Toxoplasma": 0.6915, "T. brucei": -62.58, "Leishmania in macrophages": -13.36}
{"compound": "CN(C)S(=O)(=O)N1C[C@H]2CCC[C@@]2(COCC2CCOCC2)C1", "LiHisRS": -2.521, "ClpP1P2": -6.254}

Once more, the final 2:

{"compound": "O=C(O)C(F)(F)F.[H][C@@]12COC[C@]1(c1nnc(C)o1)CN(Cc1cccs1)C2", "Toxoplasma": 0.6915, "T. brucei": -62.58, "Leishmania in macrophages": -13.36}
{"compound": "CN(C)S(=O)(=O)N1C[C@H]2CCC[C@@]2(COCC2CCOCC2)C1", "LiHisRS": -2.521, "ClpP1P2": -6.254}

The values are deposited in ChEMBL (CHEMBL3988442, “University of Dundee, Small-Polar-MMV Screening Library” (2021)).